The results in this text go back to paper PMC7848731.

For at least one entry, the source does not settle the construct or the ends of the probe.

The test system of this series is PrpT + PrpA (in PrpT/PrpA complex). Kind of series: EMSA. The conditions noted are these: EMSA: 0.1 pmol probe in 20 ul, 1x LightShift Binding buffer, 2.5% glycerol, 0.05% NP40, 50 mM added KCl, 5 mM MgCl2, 0.25 ug poly(dI:dC), 25 C 2 h; recombinant protein; label: biotin (EMSA) or FAM (footprinting) on M13F end; probe letters rebuilt from the primers and the genome; part of a longer molecule. (Mobility shift assays separate free from complexed probe on a gel.)

For the sequence “CTTTTCAACCCGTTGTTCATTATATCGAATTTGACTTCGACTCAACCGACTTACCGGGCCACGCCGCTGATGTCCTGGCGCCCCATATTACATATCTCACCACGCATCCGAATGAGCGGATCTTAATTCAGGGCGCAGGCGACACGTCGGGTACCTTTGCCTACAATTATCAGCTGGGACTGGCGCGGGCCCGGGCAGTCATGCGTCACCTCACGGATGCCGGCATTGACGCGCAGCGCATTAAAGTCGTGTCTGTGTCTAAGGCCAATGCCCGGCAAAAATCCTACACGCGCACCGCGCACCTGGTTTACTGACGCCTCTGCGCACACCCGTCATGGTAGTTTGTAATGATATGTCTTATAATTGACCAGGTAGACCCTGACAAGAAAAGAGGCTCAGT (double strand) [prpAT promoter probe]”, the binding result is listed as “binds”.
